From the supplement of paper PMC10981050
Values joined by “and” are separate entries in the source; they are usually repeats but may differ in a detail not shown here. Identical values can stand only once. Most of the strong results are listed elsewhere, so they are rarer here than in the full data.

Columns and labels:
Assay in all cases: cell viability relative to vehicle control; higher = less cytotoxic
Settings in all cases: 10 µM
K562 = tested on: K562
In short: (§1)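 CRISPR-edited mutant clones and isogenic wild-type clones from four leukaemia lines were screened against Selleck bioactive, kinase and epigenetic probe libraries, with identity-inconsistent compounds excluded. Each compound was acoustically dispensed at a single 10 µM dose into 384-well plates holding 2000 cells in 50 µL medium per well. After 48 h the supernatant was removed and CellTiter-Glo luminescence was read. Viability was expressed as percent of the on-plate vehicle control and analysed in Genedata Screener.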

MARIMO = tested on: MARIMO
In short: as §1

MOLM14 = tested on: MOLM14
In short: as §1

OCI-AML2 = tested on: OCI-AML2
In short: as §1

O=C(O)C1=C[C@@H](O)[C@@H](O)[C@H](O)C1 [Shikimic acid (Shikimate)]
cell viability (K562; SRSF2 genotype: SRSF2 P95H/wt): 99.7% and 86.6% | cell viability (K562; SRSF2 genotype: SRSF2 wt/wt): 84.1% | cell viability (MARIMO; SRSF2 genotype: SRSF2 P95H/wt): 84.1% | cell viability (MARIMO; SRSF2 genotype: SRSF2 wt/wt): 93.3% | cell viability (MOLM14; SRSF2 genotype: SRSF2 P95H/wt): 86.2% | cell viability (MOLM14; SRSF2 genotype: SRSF2 wt/wt): 88.4% | cell viability (OCI-AML2; SRSF2 genotype: P95H/wt): 98.2% | cell viability (OCI-AML2; SRSF2 genotype: wt/wt): 85.5%
